Data on 2 molecules can be found in paper PMC3961180, “The Kil Peptide of Bacteriophage λ Blocks Escherichia coli Cytokinesis via ZipA-Dependent Inhibition of FtsZ Assembly” (PLoS Genetics, 2014).

Chains of the proteins cited; added tags and fusions are not shown. Lines headed by an entry give the natural chain unless they say otherwise; changes in a name come on top. Residues count along the entry.
UniProt P03758: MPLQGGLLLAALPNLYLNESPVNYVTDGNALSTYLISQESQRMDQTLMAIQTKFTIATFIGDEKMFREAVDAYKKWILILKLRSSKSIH
UniProt P02769, residues 25-607: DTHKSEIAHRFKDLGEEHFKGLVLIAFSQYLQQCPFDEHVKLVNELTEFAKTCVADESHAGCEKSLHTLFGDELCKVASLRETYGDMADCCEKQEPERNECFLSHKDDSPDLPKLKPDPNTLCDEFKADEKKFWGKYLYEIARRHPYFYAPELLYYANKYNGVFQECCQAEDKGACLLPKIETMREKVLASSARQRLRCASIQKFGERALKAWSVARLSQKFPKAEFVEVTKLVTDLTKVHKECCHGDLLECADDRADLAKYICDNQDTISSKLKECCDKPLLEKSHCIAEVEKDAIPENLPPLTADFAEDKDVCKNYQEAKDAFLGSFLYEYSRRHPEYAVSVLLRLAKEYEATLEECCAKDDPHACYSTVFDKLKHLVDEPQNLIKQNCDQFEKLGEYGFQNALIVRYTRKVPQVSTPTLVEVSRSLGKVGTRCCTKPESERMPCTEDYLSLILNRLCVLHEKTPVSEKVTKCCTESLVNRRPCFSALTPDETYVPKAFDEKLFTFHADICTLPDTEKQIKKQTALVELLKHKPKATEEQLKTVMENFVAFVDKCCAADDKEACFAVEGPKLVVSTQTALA

This test concerns the target His6-FLAG-Kil (affinity-tagged Kil protein of bacteriophage λ) (bacteriophage λ) (UniProt P03758). Description: pull-down; His6-FLAG-Kil (10 µM) held on α-FLAG M2 affinity resin; FtsZ 5 µM and/or His6-tagged ZipAC domains (WT and L286Q) 5 µM; 6 µM BSA in all samples; polymerization buffer (50 mM MES pH 6.5, 50 mM KCl, 2.5 mM MgCl2, 1 mM EGTA, 10% sucrose); room temperature, one to three hours; washed with 25 mL buffer; SDS-PAGE, Coomassie; both purified.

These are yes or no findings as the source states them, for the method shown. Binding can be weak; no strength is given.

“Bovine serum albumin (from UniProt P02769 25-607)”: the binding entry was “no binding (tested: 6 µM)”.

B1: E. coli FtsZ (natural protein, UniProt P0A9A6 1-383, looked up)
chain: MFEPMELTNDAVIKVIGVGGGGGNAVEHMVRERIEGVEFFAVNTDAQALRKTAVGQTIQIGSGITKGLGAGANPEVGRNAADEDRDALRAALEGADMVFIAAGMGGGTGTGAAPVVAEVAKDLGILTVAVVTKPFNFEGKKRMAFAEQGITELSKHVDSLITIPNDKLLKVLGRGISLLDAFGAANDVLKGAVQGIAELITRPGLMNVDFADVRTVMSEMGYAMMGSGVASGEDRAEEAAEMAISSPLLEDIDLSGARGVLVNITAGFDLRLDEFETVGNTIRAFASDNATVVIGTSLDPDMNDELRVTVVATGIGMDKRPEITLVTNKQVQQPVMDRYQQHGMAPLTQEQKPVAKVVNDNAPQTAKEPDYLDIPAFLRKQAD
notes: cell division protein FtsZ, E. coli; expressed from pET11a-ftsZ (from H. Erickson); No tag is named for this construct; also called FtsZWT; source: E. coli BL21(DE3) pET11a-ftsZ (WM971), purified (successive 20% and 30% ammonium sulfate cuts)
Regarding B1, the binding entry is “binds”.
